Results are given in words; binding and its absence hold for the method and conditions named. Binding seen in cells or lysates may run through a third protein. Some entries that bind do so weakly or less than the wild type.
Target: T1, Upf1 (rat (endogenous in PC12 cells and sympathetic neurons))
T1 sequence: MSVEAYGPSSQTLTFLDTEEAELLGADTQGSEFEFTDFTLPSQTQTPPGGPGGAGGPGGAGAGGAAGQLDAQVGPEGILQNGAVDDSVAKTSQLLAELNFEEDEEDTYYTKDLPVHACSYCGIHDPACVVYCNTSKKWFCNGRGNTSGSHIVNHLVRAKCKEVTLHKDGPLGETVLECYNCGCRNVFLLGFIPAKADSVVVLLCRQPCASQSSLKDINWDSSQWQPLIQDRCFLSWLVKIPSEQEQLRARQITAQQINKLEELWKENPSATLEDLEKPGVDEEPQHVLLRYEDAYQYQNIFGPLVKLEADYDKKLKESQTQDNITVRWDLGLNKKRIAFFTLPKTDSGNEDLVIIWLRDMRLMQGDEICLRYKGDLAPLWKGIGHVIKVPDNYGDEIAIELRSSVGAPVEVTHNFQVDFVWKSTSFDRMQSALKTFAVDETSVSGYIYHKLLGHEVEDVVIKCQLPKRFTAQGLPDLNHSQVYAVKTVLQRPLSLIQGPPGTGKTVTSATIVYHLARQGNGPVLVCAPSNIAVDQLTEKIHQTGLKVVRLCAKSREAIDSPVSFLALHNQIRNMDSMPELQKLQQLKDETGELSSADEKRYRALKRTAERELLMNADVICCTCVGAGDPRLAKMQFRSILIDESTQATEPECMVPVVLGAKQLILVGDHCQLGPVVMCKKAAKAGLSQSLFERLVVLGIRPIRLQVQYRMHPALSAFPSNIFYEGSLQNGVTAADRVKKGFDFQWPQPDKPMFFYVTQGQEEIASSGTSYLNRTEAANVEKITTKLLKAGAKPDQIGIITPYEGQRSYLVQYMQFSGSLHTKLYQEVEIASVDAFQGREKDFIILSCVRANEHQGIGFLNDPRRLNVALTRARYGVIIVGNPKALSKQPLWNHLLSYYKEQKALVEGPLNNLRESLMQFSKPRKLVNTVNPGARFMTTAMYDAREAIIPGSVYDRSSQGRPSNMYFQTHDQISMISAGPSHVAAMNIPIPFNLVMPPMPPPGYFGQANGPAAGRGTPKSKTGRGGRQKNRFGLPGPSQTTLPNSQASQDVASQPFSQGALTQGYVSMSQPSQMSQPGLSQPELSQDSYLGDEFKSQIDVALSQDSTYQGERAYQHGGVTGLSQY
Test: co-IP; sympathetic neurons lysed in RIPA buffer; 0.5-1 mg pre-cleared lysate with 2 ug antibody overnight at 4°C, protein A-agarose beads, washes with RIPA buffer, western blot

The chains behind the UniProt entries cited, without tags or fusion partners.
UniProt Q9QZ81: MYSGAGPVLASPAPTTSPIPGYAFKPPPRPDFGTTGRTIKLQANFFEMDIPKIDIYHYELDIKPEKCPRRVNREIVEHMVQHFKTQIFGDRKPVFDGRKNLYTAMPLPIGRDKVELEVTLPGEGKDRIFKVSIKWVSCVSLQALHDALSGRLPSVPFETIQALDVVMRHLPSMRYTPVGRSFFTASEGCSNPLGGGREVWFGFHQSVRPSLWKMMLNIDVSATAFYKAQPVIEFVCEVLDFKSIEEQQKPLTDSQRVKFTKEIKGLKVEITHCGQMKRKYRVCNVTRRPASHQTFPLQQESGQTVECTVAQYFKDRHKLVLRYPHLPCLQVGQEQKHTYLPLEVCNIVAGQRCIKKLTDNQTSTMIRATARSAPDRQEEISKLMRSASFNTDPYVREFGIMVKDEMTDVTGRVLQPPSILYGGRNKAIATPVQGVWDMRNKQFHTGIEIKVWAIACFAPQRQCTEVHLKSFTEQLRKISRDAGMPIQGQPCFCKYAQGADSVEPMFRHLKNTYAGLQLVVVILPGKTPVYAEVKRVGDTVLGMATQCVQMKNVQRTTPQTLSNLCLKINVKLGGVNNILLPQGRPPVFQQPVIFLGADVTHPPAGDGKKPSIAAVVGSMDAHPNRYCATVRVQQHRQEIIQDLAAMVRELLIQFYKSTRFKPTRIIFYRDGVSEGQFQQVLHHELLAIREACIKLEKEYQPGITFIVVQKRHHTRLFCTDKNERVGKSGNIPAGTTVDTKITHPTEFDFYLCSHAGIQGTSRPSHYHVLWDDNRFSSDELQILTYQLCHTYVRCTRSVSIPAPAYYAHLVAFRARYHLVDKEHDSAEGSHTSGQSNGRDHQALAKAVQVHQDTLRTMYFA
UniProt O09032: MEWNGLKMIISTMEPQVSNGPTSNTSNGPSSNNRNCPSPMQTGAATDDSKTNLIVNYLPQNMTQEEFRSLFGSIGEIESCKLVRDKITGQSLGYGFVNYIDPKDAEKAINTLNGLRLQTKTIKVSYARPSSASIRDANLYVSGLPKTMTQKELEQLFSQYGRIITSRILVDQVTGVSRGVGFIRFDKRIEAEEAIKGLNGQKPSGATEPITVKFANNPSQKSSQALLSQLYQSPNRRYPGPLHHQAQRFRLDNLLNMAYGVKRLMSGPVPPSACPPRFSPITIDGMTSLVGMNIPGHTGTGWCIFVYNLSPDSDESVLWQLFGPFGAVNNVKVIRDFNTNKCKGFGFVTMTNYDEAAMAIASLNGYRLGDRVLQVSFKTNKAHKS

| binding | Substance |
| --- | --- |
| binds | Argonaute 2 (Ago2) (from UniProt Q9QZ81 1-860) |
| binds | ELAV-like protein 4 (HuD) (from UniProt O09032 1-385) |

— paper PMC7918530
